From patent US20190194319A1
These are yes or no findings as the source states them, for the method shown. Some binding calls cover weakened binding; strength is not graded here.

Sequences of proteins named here, by UniProt entry; tags and fusion partners are left off. A change or cut given only in a name is not applied to a line headed by its entry.
UniProt P50553: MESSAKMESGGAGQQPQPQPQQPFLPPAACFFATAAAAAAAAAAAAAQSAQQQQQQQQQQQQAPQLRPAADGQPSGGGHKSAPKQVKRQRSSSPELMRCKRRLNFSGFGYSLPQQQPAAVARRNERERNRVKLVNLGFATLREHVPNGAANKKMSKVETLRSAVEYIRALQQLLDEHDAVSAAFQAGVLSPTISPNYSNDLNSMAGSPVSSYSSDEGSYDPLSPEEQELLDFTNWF

Biological target: human ASCL1 (Achaete-scute homolog 1) (human) (UniProt P50553)
Test: screening of Example 2 (ELISA) or cells

B1: SC72.165 (antibody, V domains shown)
VH: QVQLQQPGAELVRPGASVRLSCKASGYSFTSYWINWVKQRPGQGLEWIGNIYPGSSNTNYNEKFKRKATLTVDTSSSTAYMQLSSLTSDDSAVYYCARSESDYWGQGTTLTVSS
VL: DIVLTQSPASLAVSPGQRATISCKASQSVGYDGDTYLSWYQQKPGQPPKLLIYGVSILESGIPARFSGSGSGTDFTLNIHPVEEEDAATYYCQQSSEDPYTFGGGTKLEIK
B1 was tested, and the binding was “binds”.
